Data as given in paper PMC7303132.
These are yes or no findings as the source states them, for the method shown. Binding can be weak; no strength is given. Sequences can lack the tags named with a protein.

Target: T1, PRR19 (yeast two-hybrid fusion) (mouse) (UniProt B2RW88)
T1 sequence: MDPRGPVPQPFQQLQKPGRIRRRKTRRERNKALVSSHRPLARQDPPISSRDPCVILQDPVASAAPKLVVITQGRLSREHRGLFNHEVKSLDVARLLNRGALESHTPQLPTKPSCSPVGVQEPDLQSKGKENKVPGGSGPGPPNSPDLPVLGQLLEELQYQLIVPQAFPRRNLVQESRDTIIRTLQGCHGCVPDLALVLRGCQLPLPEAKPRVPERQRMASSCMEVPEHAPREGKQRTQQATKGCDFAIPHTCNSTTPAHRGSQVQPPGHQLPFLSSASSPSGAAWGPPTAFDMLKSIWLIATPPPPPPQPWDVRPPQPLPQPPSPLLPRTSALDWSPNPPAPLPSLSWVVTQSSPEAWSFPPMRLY
Experiment: two-hybrid; pairwise, Y2HGold yeast strain, Gal4-BD and Gal4-AD vectors; growth 2-3 days on (-Leu, -Trp, -His, -Ade) plates

Substance: CNTD1Q, the protein product of Cntd1^Q allele (yeast two-hybrid fusion) (from UniProt Q9D995-3)
- binding: binds
